Laboratory results reported in PMC8424379 (2021).
Results are given in words; binding and its absence hold for the method and conditions named. In cells and extracts the contact can be indirect. Some entries that bind do so weakly or less than the wild type. Where a sequence is shown, tags or fusion partners need not be part of it.

Target: T1, Flag-tagged wild-type Ccq1 (S. pombe) (UniProt Q10432)
T1 sequence: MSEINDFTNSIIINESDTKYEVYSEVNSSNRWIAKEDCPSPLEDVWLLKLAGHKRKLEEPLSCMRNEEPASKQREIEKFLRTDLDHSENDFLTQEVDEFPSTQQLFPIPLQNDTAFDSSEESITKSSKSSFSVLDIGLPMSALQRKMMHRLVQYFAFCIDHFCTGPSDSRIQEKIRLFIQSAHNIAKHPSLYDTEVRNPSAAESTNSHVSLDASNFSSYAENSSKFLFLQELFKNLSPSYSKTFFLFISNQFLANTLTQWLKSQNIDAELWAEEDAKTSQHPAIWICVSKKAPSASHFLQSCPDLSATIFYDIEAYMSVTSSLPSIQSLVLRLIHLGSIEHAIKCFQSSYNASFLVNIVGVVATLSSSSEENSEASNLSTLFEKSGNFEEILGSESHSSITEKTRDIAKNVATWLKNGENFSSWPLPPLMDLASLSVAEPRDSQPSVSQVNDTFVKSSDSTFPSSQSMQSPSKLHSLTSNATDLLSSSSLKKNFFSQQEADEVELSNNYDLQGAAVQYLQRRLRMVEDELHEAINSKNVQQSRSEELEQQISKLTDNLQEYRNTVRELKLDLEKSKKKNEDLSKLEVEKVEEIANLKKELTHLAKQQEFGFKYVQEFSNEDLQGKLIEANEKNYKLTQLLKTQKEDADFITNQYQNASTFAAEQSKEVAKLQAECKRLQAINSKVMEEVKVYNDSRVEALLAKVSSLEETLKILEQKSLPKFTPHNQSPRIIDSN
Assay: co-IP; S. pombe whole-cell extracts (50 mM Hepes pH 7.5, 150 mM NaCl, 1 mM EDTA, 1% Triton-X100); Flag-tagged Ccq1 precipitated with anti-FLAG M2 Affinity Gel, 4°C, 4 h; Myc-tagged Raf2 detected by immunoblot

B1: Myc-tagged Raf2 (protein, UniProt O74560 1-636)
chain: MPPVRAEKKRKTDLIEQVCVTNKAGELVDLEDVLEYGPYSLTGILSSEKDEQEPLFDESIVLGYSIKISPVWTYNLKDVPEKETMSIWIVTPQRRYGILSPSSEYKAIYEQISEKNRLFYLIKTKFKDDMISGTLEDYDNYIEVLKEKLELPSCFQAILLVQKHIRFLLTQMVATSSLHVWSESPFFIRIRSSYEHLILQINKNIYNARQERKKSKLSSNNPSDNNTTMKSSLNQALTLINLPEQPFSISSPTATPQLGVVKRTSPLRFPLNDIWLSGLRIVDPNIESISLWKRIQVSTSPKHQRYISLQEVCSVIAQQLQITNLEALNKLSSHGETLLQIMHTAFTWRGTKLFNDIKHAIGFRSSVQQARSQFRGYCYDYLFMHCNNGEKTSLHLLRTLICMKLDFSNAQLAAKILFHFLLFDIGSGLSGSDYTYEQYINHSAVAFSFTEEIFEKNFVTVLPDFVKLFSISFGYWPAFSFYDELLKLLRNKYPKVYSSTPNLCDQVWLDRTNLFPCNRSTRSTLPYRPTKLLDLASASSCLSKKETDFKQDTGLYSYNLEKVEALKVSPDLQTGIWSCPVQNCLYFAVCDNPYKPSQVIYDHLLGHVDSKFIFKTPSNSVRSFTNKLEHIMYNIN
- binding: binds
